From patent US20100181197A1 (GE HEALTHCARE BIO-SCIENCES AB, priority 2007, published 2010) come the findings set out here.

This data set in a line: general procedure: Fmoc solid-phase peptide synthesis; Wang resin; HBTU/HOBt, DIPEA. The conditions noted are these: whole synthesis, scale 100 mg resin-bound peptide cleaved.

In turn, H2N-Glu-Gly-Asp-Gly-Lys-COOH gave an isolated mass of 35 mg.
